Measured values from the supplement of paper PMC10727501.
Some of the results follow. Single values are uncertain here, since repeats match poorly.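 Free-swimming zebrafish larvae were scored for O-bend response probability to dark flashes (naive: first five; training: remaining flashes of four 60-flash blocks; test: later 60-flash block) and for turning toward alternating leftward/rightward LED motion (OMR). Six treated larvae were compared with sixty 0.1% DMSO controls; |SSMD|≥2 defined a hit.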

System: Danio rerio larvae (5 dpf, TLF)
Experiment: OMR-Perf (SSMD vs DMSO vehicle); higher = higher than vehicle (e.g. higher dark-flash O-bend response probability, or better optomotor performance)
Settings: 10 µM; pre-incubation: 30-90 min

Structure (SMILES)	OMR-Perf
O=C(C1CCCCC1)N1CC(=O)N2CCc3ccccc3C2C1 (stereo not drawn) [Praziquantel]	-0.214
CN1CCC(=C2c3ccccc3CCc3sccc32)CC1.O=C(O)CC(O)C(=O)O [Pizotifen Malate]	-0.746
CC(C)c1c(C(=O)Nc2ccccc2)c(-c2ccccc2)c(-c2ccc(F)cc2)n1CC[C@@H](O)C[C@@H](O)CC(=O)[O-].CC(C)c1c(C(=O)Nc2ccccc2)c(-c2ccccc2)c(-c2ccc(F)cc2)n1CC[C@@H](O)C[C@@H](O)CC(=O)[O-].[Ca+2] [Atorvastatin Calcium]	0.0766
O=C(O)[C@H](O)[C@@H](O)C(=O)O.c1cnc2cc3c(cc2n1)C1CNCC3C1 [Varenicline Tartrate]	0.0742
C[C@H](N[C@@H](CCc1ccccc1)C(=O)O)C(=O)N1CCC[C@H]1C(=O)O.O.O [Enalaprilat Dihydrate]	0.161
CC(C)(C)NS(=O)(=O)c1cncc(-c2cc(F)c3nc(N)nn3c2)c1	-0.742
COCCCN1CCC(NC(=O)c2cc(Cl)c(N)c3c2OCC3)CC1.O=C(O)CCC(=O)O [Prucalopride Succinat]	0.279
O=C(NCCCNc1nc(Nc2cccc(NC(=O)N3CCCC3)c2)ncc1I)c1cccs1	-0.274
Nc1c(CC(=O)[O-])cccc1C(=O)c1ccccc1.O.[Na+] [Amfenac Sodium Monohydrate]	0.0588
C[C@]12C[C@@]3(O)O[C@@H](O1)[C@]1(COC(=O)c4ccccc4)[C@H]3C[C@@]12O[C@@H]1O[C@H](CO)[C@@H](O)[C@H](O)[C@H]1O [Paeoniflorin]	-0.551
COc1ccccc1OCC(O)CO (stereo not drawn) [Guaifenesin]	0.338
CN1CCC(CNc2ccc3ncc(-c4cccc(OC(F)(F)F)c4)n3n2)CC1 [SGI-1776 free base]	-0.00186
O=C(O)c1cccnc1 [Nicotinic Acid]	0.195
CC(=O)N[C@@H]1[C@H]([C@H](O)[C@H](O)CO)OC(C(=O)O)=C[C@@H]1NC(=N)N [Zanamivir]	-0.182
Cl.c1ccc(C2CN3CCSC3=N2)cc1 (stereo not drawn) [Tetramisole HCl]	0.0536
O=C(Nc1ccc2c(=O)cc(-c3nnn[nH]3)oc2c1)c1ccc(OCCCCc2ccccc2)cc1 [Pranlukast]	0.0925
COc1ccc(-c2coc3cc(O)ccc3c2=O)cc1 [Formononetin]	0.116
Cc1c(-c2ccc(O)cc2)n(Cc2ccc(OCCN3CCCCCC3)cc2)c2ccc(O)cc12.Cl [Bazedoxifene HCl]	0.526
CC(C)Cc1ccc(C(C)C(=O)O)cc1.NCCCC[C@H](N)C(=O)O (stereo not drawn) [Ibuprofen Lysine (NeoProfen)]	-0.0531
Cc1nc2c([nH]1)-c1ccccc1N(C(=O)c1ccc(NC(=O)c3ccccc3-c3ccccc3)cc1)CC2.Cl [Conivaptan HCl]	-0.203
CCc1ccc(OCc2ccccc2C(=O)Nc2ccc3nc(C)cc(N)c3c2)cc1.Cl	-0.578
Cc1ccc(C(=O)Nc2ccc(CN3CCN(C)CC3)c(C(F)(F)F)c2)cc1C#Cc1cnc2cccnn12	-0.84
COc1cccc(C=NCCN=Cc2cccc(OC)c2[O-])c1[O-].[Cl-].[Mn+3]	-0.154
Cc1ccc(S(=O)(=O)NC(=O)NN2CCCCCC2)cc1 [Tolazamide]	0.309
CN1C[C@@H]2c3ccccc3Oc3ccc(Cl)cc3[C@H]2C1.O=C(O)/C=C\C(=O)O [Asenapine]	-0.913
C[C@@H]1C[C@H]2[C@@H]3C[C@H](F)C4=CC(=O)C=C[C@]4(C)[C@]3(F)[C@H](O)C[C@]2(C)[C@@]1(O)C(=O)CO [Flumethasone]	0.264
COc1ccc(CN(CCN(C)C)c2ccccn2)cc1.O=C(O)C=CC(=O)O [Pyrilamine Maleate]	0.207
CC(C)(Oc1ccc(CCNC(=O)c2ccc(Cl)cc2)cc1)C(=O)O [Bezafibrate]	0.495

2 of these compounds in a different format.
O=C(O)[C@H](O)[C@@H](O)C(=O)O.c1cnc2cc3c(cc2n1)C1CNCC3C1 [Varenicline Tartrate]
  OMR-Perf: 0.0742
C[C@H](N[C@@H](CCc1ccccc1)C(=O)O)C(=O)N1CCC[C@H]1C(=O)O.O.O [Enalaprilat Dihydrate]
  OMR-Perf: 0.161
